Data: PubChem BioAssay AID1671190 (National Center for Advancing Translational Sciences (NCATS), 2021)
Screen size: about 580,000 compounds; about 6,100 (1.1%) were called active. Listed are the inconclusive results; actives and inactives stand elsewhere. Calls follow the shape of the dose curve; as a rule, active = well fitted inhibition curve with a large enough effect; inconclusive = small, poorly fitted or top-dose-only effect, or another doubt; inactive = no such curve, though single readings can be large or run the other way. Some salts or complexes appear as unconnected parts, following the source record.

Sequences of proteins named here, by UniProt entry; tags and fusion partners are left off.
UniProt P18054, whole entry: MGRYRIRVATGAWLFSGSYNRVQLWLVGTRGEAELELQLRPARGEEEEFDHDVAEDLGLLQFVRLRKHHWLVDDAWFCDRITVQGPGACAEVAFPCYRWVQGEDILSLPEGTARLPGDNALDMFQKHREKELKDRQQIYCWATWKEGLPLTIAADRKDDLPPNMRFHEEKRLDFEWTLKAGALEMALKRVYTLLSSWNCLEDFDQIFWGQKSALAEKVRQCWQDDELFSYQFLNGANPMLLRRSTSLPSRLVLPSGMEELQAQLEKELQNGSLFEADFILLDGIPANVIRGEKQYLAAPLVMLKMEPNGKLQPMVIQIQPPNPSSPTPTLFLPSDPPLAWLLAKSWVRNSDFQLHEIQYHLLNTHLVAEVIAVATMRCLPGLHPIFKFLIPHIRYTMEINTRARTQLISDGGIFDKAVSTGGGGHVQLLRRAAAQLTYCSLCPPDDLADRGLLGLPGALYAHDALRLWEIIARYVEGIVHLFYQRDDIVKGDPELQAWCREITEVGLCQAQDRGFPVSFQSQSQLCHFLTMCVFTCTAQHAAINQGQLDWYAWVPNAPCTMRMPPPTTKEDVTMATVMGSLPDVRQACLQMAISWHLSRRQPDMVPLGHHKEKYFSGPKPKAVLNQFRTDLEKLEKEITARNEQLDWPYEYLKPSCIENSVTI

Target: Polyunsaturated fatty acid lipoxygenase ALOX12 (Homo sapiens) (UniProt P18054)
Test: Primary qHTS assay for inhibitors of human arachidonate 12S-lipoxygenase (ALOX12): Round 2
Settings: purified 12hLO, xylenol orange hydroperoxide absorbance
From the text: Assay Provider: Theodore R. Holman Ph.D. University of California, Santa Cruz, California Human lipoxygenase 12hLO is a member of the closely related lipoxygenase family of enzymes which catalyze the site-specific oxidation of arachidonic acid to various hormone precursor molecules and as such is a candidate for drug development in a variety of disease areas, such as cancer and inflammation. Inhibition of 12hLO activity was screened by utilizing arachidonic acid as a substrate. The extent of hydroperoxide product formation was measured by a secondary chromogenic reaction in which xylenol orange (XO, Sigma-Aldrich, cat. number 39,818-7) reacts with the ferric ions produced from the reaction between the hydroperoxide and ferrous ions. The Fe (III)-XO complex is characterized with red-shifted absorbance at 560 nm. A purified preparation of human 12hLO was supplied by Dr. Holman laboratory, University of California, Santa Cruz.
PROTOCOL TABLE SEQUENCE No. (e.g., 1, 2, 3, etc.); […] (e.g., Cells, Incubation, Reagent, etc.); VALUE; DESCRIPTION 1; Enzyme; 3 uL; 150 nM 12hLO enzyme solution dispensed in 1536-well Greiner black, clear bottom plates. 2; Compound; 23 nL; compounds and controls were added. 3; Incubate; 15 min; room temperature. 4; Substrate; 1 uL; 40 uM arachidonic acid (final concentration). 5; Incubate; 30 min; room temperature. 6; Reagent; 4 uL; Fe-XO solution was added to each well. 7; Incubation; 30 min; room temperature 8; Detector; absorbance; Read 1 at 405 nm absorbance using ViewLux (Perkin-Elmer) CCD imager. 9; Detector; absorbance; Read 2 at 573 nm absorbance using ViewLux (Perkin-Elmer) CCD imager. NOTES (numbers refer to sequence above) 1; 150 nM 12hLO (final concentration) in buffer solution (25 mM Hepes, 0.01% Triton X-100, pH 7.0) was dispensed in columns 1, 2, 5-48. Column 1 is neutral (100% activity). Buffer only was dispensed in columns 3 and 4 as no enzyme negative controls. The plates were covered with metal lids with gas-exchange holes. 2; Compounds were pin transferred via a Kalypsys Pin Tool (Wako USA) in column 5-48. Control compound was transferred in column 2, titration of nordihydroguaiaretic acid (NDGA, Sigma-Aldrich, N5023) with top concentration of 20 mM in DMSO then 1:3 dilution in duplicate. Dilution factor of 23 nL into 4 uL final assay volume. 3; Covered assay plates were incubated for 15 min at room temperature. 4; Substrate was added to start the reaction; 40 uM arachidonic acid (Sigma-Aldrich, St. Louis, MO) was dispensed throughout the plate. 6; Chromogenic detection reagent solution (divalent iron/xylenol orange, Fe-XO) was added to each well: 200 uM xylenol orange, 300 uM ferrous ammonium sulfate prepared freshly in 50 mM sulfuric acid. 8, 9; Two absorbance readouts were obtained at 405 nm and at 573 nm using a ViewLux high-throughput CCD plate imager (Perkin-Elmer). The 573 to 405 (Read 2 / Read 1) absorbance ratio was used to compute reaction progress.
Potency is read from the fitted curve at half-maximal effect.

Row | SMILES | Potency
1 | Brc1ccc(NC2CCN(Cc3cccc(Br)c3)CC2)cc1 | inconclusive: 8.91 µM
2 | CCCN1CCC(Nc2cc(OC)cc(OC)c2)CC1 | inconclusive: 31.6 µM
3 | O=C(NCC1(N2CCOCC2)CCCCC1)c1ccccc1 | inconclusive: 22.4 µM
4 | CCOC(=O)C(CC)C1=NC(C)(C)Cc2ccccc21.O=[N+]([O-])c1cc([N+](=O)[O-])c(O)c([N+](=O)[O-])c1 (centres undefined) | inconclusive: 89.1 µM
5 | O=C(NCC1(N2CCOCC2)CCCCC1)c1ccccc1[N+](=O)[O-] | inconclusive: 50.1 µM
6 | Fc1ccc(CN2CCC(Nc3ccc(Br)cc3)CC2)cc1 | inconclusive: 0.891 µM
7 | CCCCn1nnnc1C(c1cccc(OC)c1OC)N1CCC(n2c(=O)[nH]c3ccccc32)CC1 (centres undefined) | inconclusive: 89.1 µM
8 | COc1cccc(C(c2nnnn2C(C)(C)C)N2CCC(n3c(=O)[nH]c4ccccc43)CC2)c1OC (centres undefined) | inconclusive: 100 µM
9 | CCOC(=O)N1CCC(Nc2ccc(C)cc2)CC1 | inconclusive: 35.5 µM
10 | Cn1nc(C(=O)NCC2(N3CCOCC3)CCCCC2)c2ccccc2c1=O | inconclusive: 31.6 µM
11 | O=c1[nH]c2ccccc2n1C1CCN(C(c2ccnc3ccccc23)c2nnnn2C2CCCC2)CC1 (centres undefined) | inconclusive: 100 µM
12 | COc1cc(C(=O)NCC2(N3CCOCC3)CCCCC2)cc(OC)c1C | inconclusive: 100 µM
13 | O=C(O)C1(Nc2ccccc2)CCN(Cc2ccccc2)CC1 | inconclusive: 112 µM
14 | NN(c1ccccc1)C1CCN(CCc2ccccc2)CC1 | inconclusive: 100 µM
15 | CN1CCC(Nc2ccc(F)c(Cl)c2)CC1 | inconclusive: 0.501 µM
16 | CC(C)(C)c1ccc(C(=O)NCC2(N3CCOCC3)CCCCC2)cc1 | inconclusive: 20 µM
17 | Clc1ccccc1CN1CCC(Nc2ccc(Br)cc2)CC1 | inconclusive: 2.51 µM
18 | CC(C)(C)n1nnnc1C(c1ccnc2ccccc12)N1CCC(n2c(=O)[nH]c3ccccc32)CC1 (centres undefined) | inconclusive: 79.4 µM
19 | CCN1CCC(Nc2cccc(F)c2)CC1 | inconclusive: 1.58 µM
20 | Fc1ccccc1NC1CCN(Cc2ccccc2)CC1 | inconclusive: 2.51 µM
21 | CN(C)C1(CNC(=O)c2cc3c(s2)CCC3)CCCCC1 | inconclusive: 3.16 µM
22 | Cc1ccc(C(C)CCN(CCCl)CCCl)cc1 (centres undefined) | inconclusive: 3.16 µM

Row | SMILES | Potency
23 | CCOC(=O)N1CCC(Nc2cccc(C)c2)CC1 | inconclusive: 35.5 µM
24 | O=c1[nH]c2ccccc2n1C1CCN(C(c2ccccc2)c2nnnn2C2CCCCC2)CC1 (centres undefined) | inconclusive: 25.1 µM
25 | CCCOc1ccccc1C(=O)NCC1(N2CCOCC2)CCCCC1 | inconclusive: 56.2 µM
26 | COc1ccc(NC2CCN(CCc3ccccc3)CC2)c(OC)c1 | inconclusive: 22.4 µM
27 | CCCCn1nnnc1C(c1cc2ccccc2o1)N1CCC(n2c(=O)[nH]c3ccccc32)CC1 (centres undefined) | inconclusive: 50.1 µM
28 | COc1ccccc1C(=O)NCC1(N2CCOCC2)CCCCC1 | inconclusive: 6.31 µM
29 | CCOc1ccc(C)cc1CN(CCCl)CCCl | inconclusive: 3.98 µM
30 | O=C(NCC1(N2CCOCC2)CCCCC1)c1ccc(Cl)cc1 | inconclusive: 20 µM
31 | O=C1C(O)=C([N+](=O)[O-])C(=O)C(O)=C1[N+](=O)[O-] | inconclusive: 0.708 µM
32 | Fc1ccc(CN2CCC(Nc3ccccc3Cl)CC2)cc1 | inconclusive: 5.01 µM
33 | O=[N+]([O-])c1cc([N+](=O)[O-])c(Nc2ccc(Cl)cc2)c([N+](=O)[O-])c1 | inconclusive: 63.1 µM
34 | COc1ccc(C(c2nnnn2C2CCCC2)N2CCC(n3c(=O)[nH]c4ccccc43)CC2)cc1 (centres undefined) | inconclusive: 39.8 µM
35 | COc1ccc2c(c1O)-c1c(O)c(OC)cc3c1[C@H](C2)[N+](C)(C)CC3.O=[N+]([O-])c1cc([N+](=O)[O-])c([O-])c([N+](=O)[O-])c1[O-] | inconclusive: 50.1 µM
36 | COc1cc(OC)c(C(=O)NCC2(N(C)C)CCCCC2)cc1OC | inconclusive: 3.16 µM
37 | O=[N+]([O-])c1cc([N+](=O)[O-])c(OC2CCCCC2O)c([N+](=O)[O-])c1 (centres undefined) | inconclusive: 39.8 µM
38 | CCCCn1nnnc1C(c1cccc2ccccc12)N1CCC(n2c(=O)[nH]c3ccccc32)CC1 (centres undefined) | inconclusive: 50.1 µM
39 | CN1CCN(CCOC(=O)C(O)(c2ccccc2)c2ccccc2)CC1 | inconclusive: 56.2 µM
40 | CCCOc1cccc(C(=O)NCC2(N(C)C)CCCCC2)c1 | inconclusive: 22.4 µM
41 | CCCOc1cccc(C(=O)NCC2(N3CCOCC3)CCCCC2)c1 | inconclusive: 56.2 µM
42 | O=C(NCC1(N2CCOCC2)CCCCC1)c1cc2c(s1)CCCC2 | inconclusive: 1.26 µM
43 | CCN1CCC(Nc2ccc(Cl)cc2)CC1 | inconclusive: 35.5 µM
44 | CC(C)(C)n1nnnc1C(c1ccccc1OC(F)(F)F)N1CCC(n2c(=O)[nH]c3ccccc32)CC1 (centres undefined) | inconclusive: 100 µM
